At least one compound was matched to its structure with a doubt left.
Molecular target: hPARG (C-terminal His6-tag) (Homo sapiens (Human), UniProt Q86W56)
Experiment: PARG Enzymatic Activity Assay (HTRF)
Type: biochemical
Conditions: hPARG 65 pM final, biotinylated-NAD ribosylated PARP1 8 nM final
Experimental: PARG Enzymatic Activity Assay HTRF assay was used to measure the ability of compounds to inhibit the activity of PARG in vitro. C-terminal His6-tag PARG expressed in E. coli was purified and stored at −80° C. in aliquots. Assay measurements were performed with 1×buffer comprising 50 mM Tris pH 7.4, 0.1 mg/mL BSA, 3 mM EDTA, 0.4 mM EGTA, 1 mM DTT, 50 mM KCl and 0.01% Tween 20.
Compounds dissolved in DMSO were plated into a 384-well assay plate (PerkinElmer, Catalog #: 6008280) in duplicate using a dispenser (Labcyte, Echo 665), and tested on a 10-point 4-fold serial dilution. Add 5 L Enzyme mix [hPARG (C-terminal His6-tag, 4.2 μM), 65 pM final] to the test wells. The plates were covered and left to incubate for 60 minutes at RT before the addition of 5 L substrate mix [biotinylated-NAD ribosylated PARP1 (6.1 μM), 8 nM final] to initiate reaction. […] Read on a multimode plate reader (PerkinElmer, Envision 2015) in time-resolved fluorescence (TRF) mode, with excitation at 337 nm and emission at both 620 nm and 665 nm. Average HTRF signal of high control (Wells with 1% DMSO) was calculated and as Vehicle Control (VC). Average HTRF signal of low control (no Enzyme) was calculated and as Positive control (PC).
IC50 values were determined by fitting the data to the standard 4 parameters with Hill Slope using GraphPad Prism software.

Sequences of proteins named here, by UniProt entry; tags and fusion partners are left off. A change or cut given only in a name is not applied to a line headed by its entry.
UniProt Q86W56: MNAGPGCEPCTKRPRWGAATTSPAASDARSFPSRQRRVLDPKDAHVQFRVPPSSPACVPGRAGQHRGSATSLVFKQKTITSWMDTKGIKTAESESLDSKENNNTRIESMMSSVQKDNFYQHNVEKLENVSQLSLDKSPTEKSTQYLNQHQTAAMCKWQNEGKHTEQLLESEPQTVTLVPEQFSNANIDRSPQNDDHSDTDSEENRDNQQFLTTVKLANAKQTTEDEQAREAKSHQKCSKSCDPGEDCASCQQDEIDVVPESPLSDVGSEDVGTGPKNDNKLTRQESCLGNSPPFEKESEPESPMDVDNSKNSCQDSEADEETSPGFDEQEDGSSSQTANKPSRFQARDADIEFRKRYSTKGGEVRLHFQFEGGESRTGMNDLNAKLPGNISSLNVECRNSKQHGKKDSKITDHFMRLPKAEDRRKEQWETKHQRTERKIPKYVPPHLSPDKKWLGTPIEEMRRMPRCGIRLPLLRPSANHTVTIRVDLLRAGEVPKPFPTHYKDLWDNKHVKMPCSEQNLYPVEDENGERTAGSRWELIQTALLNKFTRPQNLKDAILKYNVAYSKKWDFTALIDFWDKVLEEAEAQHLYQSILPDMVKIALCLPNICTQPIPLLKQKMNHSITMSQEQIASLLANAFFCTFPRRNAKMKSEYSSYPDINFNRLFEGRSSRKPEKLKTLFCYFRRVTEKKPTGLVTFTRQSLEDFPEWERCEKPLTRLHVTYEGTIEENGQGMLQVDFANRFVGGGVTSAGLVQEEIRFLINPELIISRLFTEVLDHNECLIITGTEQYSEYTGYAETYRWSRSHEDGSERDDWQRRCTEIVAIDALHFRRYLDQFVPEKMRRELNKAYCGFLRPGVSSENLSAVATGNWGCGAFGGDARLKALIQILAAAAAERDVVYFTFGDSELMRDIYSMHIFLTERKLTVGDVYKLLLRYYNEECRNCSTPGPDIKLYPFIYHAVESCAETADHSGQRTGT

Compound	IC50
CC(C)C(=O)N1C[C@H]2CC[C@@H]1CN2c1ncnc2c1c1ccc(S(=O)(=O)NC3(C#N)CC3)cc1n2-c1nnc(C(F)F)s1 [Example 32, N-(1-Cyanocyclopropyl)-9-(5-(difluoromethyl)-1,3,4-thiadiazol-2-yl)-4-((1R,4R)-5-isobutyryl-2,5-diazabicyclo[2.2.2]octan-2-yl)-9H-pyrimido[4,5-b]indole-7-sulfonamide]	< 100 nM
N#CC1(NS(=O)(=O)c2ccc3c4c(N5CCN(C(=O)c6ccccn6)CC5)ncnc4n(-c4nnc(C(F)F)s4)c3c2)CC1 [Example 14, N-(1-Cyanocyclopropyl)-9-(5-(difluoromethyl)-1,3,4-thiadiazol-2-yl)-4-(4-picolinoylpiperazin-1-yl)-9H-pyrimido[4,5-b]indole-7-sulfonamide]	< 100 nM

From patent publication US20250388589A1, “TRICYCLIC HETEROCYCLIC DERIVATIVES, COMPOSITIONS AND USES THEREOF” (Danatlas Pharmaceuticals Co., Ltd., priority 2022, published 2025)
